PubChem BioAssay AID1224830 – NIAID – 2016
The whole screen tested about 18,000 reagents; shown is an unselected part. Over the whole deposit, about 2,900 (16%) are marked active. 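Calls are made per well; low scores hint the gene aids the LPS response, high scores that it dampens it.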 A number with no mark means an inactive call. Repeated entries: four replicate wells of each siRNA pool.

Screen: 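Genes whose knock-down alters the TNF-alpha reporter response to LPS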 (primary screen)
Cell system: human THP-1 monocytic leukaemia cells, TNF dual-luciferase reporter clone, PMA-differentiated to macrophage-like cells
Reagents: siRNA pool against human genes, 50 nM
Duration: LPS for 4 h, given about 3 days after siRNA transfection
Conditions: bacterial LPS (TLR4 ligand), 10 ng/ml
Read-out: 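TNF firefly reporter luminescence divided by renilla, normalised to the plate median, then turned into a robust z-score for each replicate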
Direction: TNF reporter robust z-score: higher = stronger TNF reporter response to LPS
Hit rule: 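a well is active when its z-score exceeds 2.8 or falls below -1.5; control wells carry no call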

Target gene,PubChem SID,TNF reporter robust z-score
ACSF2,SID315459708,-0.07
ACSF2,SID315459708,0.56
ACSF2,SID315459708,-0.13
PLA2G5,SID315450616,-1.12
PLA2G5,SID315450616,0.26
PLA2G5,SID315450616,-0.59
PLA2G5,SID315450616,-0.7
CNTFR,SID315448005,-0.86
CNTFR,SID315448005,0.43
CNTFR,SID315448005,-0.65
CNTFR,SID315448005,-0.51
SYNRG,SID315454736,1.08
SYNRG,SID315454736,1.06
SYNRG,SID315454736,0.14
SYNRG,SID315454736,1.31
TEAD1,SID315451814,-0.75
TEAD1,SID315451814,0.08
TEAD1,SID315451814,-0.7
TEAD1,SID315451814,0.86
KCNH7,SID315460783,-0.31
KCNH7,SID315460783,-0.62
KCNH7,SID315460783,-1.29
KCNH7,SID315460783,-1.3
ANXA1,SID315447321,0.11
ANXA1,SID315447321,1
ANXA1,SID315447321,1.07
ANXA1,SID315447321,1.61
HLA-DOB,SID315449207,-0.37
HLA-DOB,SID315449207,0.36
HLA-DOB,SID315449207,0.45
HLA-DOB,SID315449207,-0.51
ATP6V0D2,SID315463389,0.35
ATP6V0D2,SID315463389,0.92
ATP6V0D2,SID315463389,0.87
ATP6V0D2,SID315463389,2.72
KIRREL1,SID315457527,1.15
KIRREL1,SID315457527,2.03
KIRREL1,SID315457527,-0.37
KIRREL1,SID315457527,1.24
ZNF195,SID315452276,0.36
ZNF195,SID315452276,0.91
ZNF195,SID315452276,0.53
ZNF195,SID315452276,0.51
BCL6,SID315447529,-1.75 (active)
BCL6,SID315447529,-1.93 (active)
BCL6,SID315447529,-1.73 (active)
BCL6,SID315447529,-2.01 (active)

Called active, of those listed so far:
Target gene,PubChem SID,TNF reporter robust z-score
BCL6,SID315447529,-1.75 (active)
BCL6,SID315447529,-1.93 (active)
BCL6,SID315447529,-1.73 (active)
BCL6,SID315447529,-2.01 (active)
